Measurements from paper PMC5996148.
This is one part of the list. For some of these results: The source does not settle which construct or isoform was used.

By UniProt entry, the sequences of proteins in these tests, tags left out. Where a name states a change or a piece, a line headed by the entry shows the natural chain unless it says otherwise.
UniProt Q15286: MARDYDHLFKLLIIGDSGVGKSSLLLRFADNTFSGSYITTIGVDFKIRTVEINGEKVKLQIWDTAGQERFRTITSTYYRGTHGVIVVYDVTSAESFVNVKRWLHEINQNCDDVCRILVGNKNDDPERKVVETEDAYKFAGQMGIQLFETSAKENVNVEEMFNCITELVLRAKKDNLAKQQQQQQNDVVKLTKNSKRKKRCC

Legend:
Experiment in all cases: protein microarray (ProtoArray v5.0), streptavidin-Alexa Fluor 647
Conditions in all cases: 3'-biotin; 20 mM Tris (pH 7.5), 5 mM MgCl2, 100 mM KCl, 0.1% Tween-20, A/T-rich and random oligonucleotide blockers; temperature not stated; high values mean tight binding
[1] = test system: Putative adenylate kinase 7 (human)
[2] = test system: Putative elongation factor 1-delta-like protein (human)
[3] = test system: Putative protein phosphatase inhibitor 2-like protein 3 (human)
[4] = test system: Pyruvate kinase isozymes R/L (human)
[5] = test system: QARS (human)
[6] = test system: RAB1B (human)
[7] = test system: RAB27A (human)
[8] = biological target: RAB35 (UniProt Q15286)
[9] = test system: RAB39 (human)
[10] = test system: RAB3B (human)

Which binding signal [1] does the source give for “GGTGACAGGGGTATGGGGAGGGG [G4-2 biotinylated (Ct1)]” here?
Its binding signal is -0.401 z-score.

And the binding signal [2]?
The binding signal was -0.383 z-score.

What about the binding signal [3] of the same sequence?
Its binding signal is -0.398 z-score.

What about the binding signal [4] of the same sequence?
Its binding signal is -0.392 z-score.

What about the binding signal [5] of the same sequence?
Its binding signal is -0.374 z-score.

And the binding signal [6]?
Its binding signal is -0.392 z-score.

What about the binding signal [7] of the same sequence?
The binding signal was -0.4 z-score.

What about the binding signal [8] of the same sequence?
Its binding signal is 5.92 z-score.

And the binding signal [9]?
The binding signal was -0.385 z-score.

What about the binding signal [10] of the same sequence?
The binding signal was -0.38 z-score.
